Test results as given in article doi:10.1101/2025.07.10.664251.
These are yes or no findings as the source states them, for the method shown. Binding calls can cover weak binding; strength is not graded here.

Target: human recombinant insulin (human)
Assay: ELISA

B1: RA32 antibody (antibody, V domains shown)
VH: QVQLRQPGIELAKSGTSVKLSCKASGFTFTSYWMHWVRQRPGQGLEWIGHINPNKDGINFNERFKTKATLTVDRSSATAFMQLSSLTSADSAVYYCARWGPGYFDYWGQGTTLTVSS
VL: DLVLTQSPASVAVSPGQRATISCRVSESIDNFGISFMNWFQQKPGQPPKLLIYFASKQGSGVPARFTGSGSGTNFSLNIHPMEEDDTAMYFCQQSKEVPYTFGGGTKLEIK
  binding: binds
